In the supplement of paper PMC7666118:
This is one part of the list.

The chains behind the UniProt entries cited, without tags or fusion partners. Where a name states a change or a piece, a line headed by the entry shows the natural chain unless it says otherwise.
UniProt Q86UT6, whole entry: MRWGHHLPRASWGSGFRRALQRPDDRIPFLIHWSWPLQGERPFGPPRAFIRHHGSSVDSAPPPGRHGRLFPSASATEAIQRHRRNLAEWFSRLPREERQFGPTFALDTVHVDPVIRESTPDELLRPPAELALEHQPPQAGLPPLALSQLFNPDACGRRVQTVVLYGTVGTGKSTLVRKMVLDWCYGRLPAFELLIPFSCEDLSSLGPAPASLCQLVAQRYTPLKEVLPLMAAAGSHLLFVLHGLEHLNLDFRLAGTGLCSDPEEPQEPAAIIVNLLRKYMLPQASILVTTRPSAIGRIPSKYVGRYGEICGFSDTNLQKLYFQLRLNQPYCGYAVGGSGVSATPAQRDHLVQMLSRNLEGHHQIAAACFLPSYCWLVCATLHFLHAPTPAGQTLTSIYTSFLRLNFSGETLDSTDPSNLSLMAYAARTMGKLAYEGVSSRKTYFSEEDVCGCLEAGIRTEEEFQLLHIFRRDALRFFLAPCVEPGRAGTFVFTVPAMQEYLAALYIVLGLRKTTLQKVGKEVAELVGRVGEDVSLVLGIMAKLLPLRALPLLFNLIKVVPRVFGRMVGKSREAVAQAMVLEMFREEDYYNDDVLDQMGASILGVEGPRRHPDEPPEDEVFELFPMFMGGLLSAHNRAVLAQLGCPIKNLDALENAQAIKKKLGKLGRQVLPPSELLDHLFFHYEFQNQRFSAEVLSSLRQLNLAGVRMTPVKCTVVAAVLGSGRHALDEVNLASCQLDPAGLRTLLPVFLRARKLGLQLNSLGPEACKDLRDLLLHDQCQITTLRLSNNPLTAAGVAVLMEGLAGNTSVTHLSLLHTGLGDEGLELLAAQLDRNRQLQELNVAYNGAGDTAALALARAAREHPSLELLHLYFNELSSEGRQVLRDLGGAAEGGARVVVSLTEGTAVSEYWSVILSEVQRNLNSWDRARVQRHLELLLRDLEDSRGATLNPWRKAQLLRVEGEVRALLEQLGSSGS
UniProt O15504: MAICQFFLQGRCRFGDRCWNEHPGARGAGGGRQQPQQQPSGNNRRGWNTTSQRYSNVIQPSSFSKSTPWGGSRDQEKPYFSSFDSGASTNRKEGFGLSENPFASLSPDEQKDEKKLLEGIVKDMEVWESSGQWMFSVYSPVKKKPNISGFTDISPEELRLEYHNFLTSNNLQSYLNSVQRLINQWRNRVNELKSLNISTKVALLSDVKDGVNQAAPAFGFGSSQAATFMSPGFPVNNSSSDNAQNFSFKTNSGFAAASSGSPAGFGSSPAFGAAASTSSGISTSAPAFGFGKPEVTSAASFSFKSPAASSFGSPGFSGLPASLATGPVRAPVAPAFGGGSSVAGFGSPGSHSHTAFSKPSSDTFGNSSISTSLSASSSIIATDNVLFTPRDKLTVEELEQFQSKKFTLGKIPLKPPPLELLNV
UniProt Q5SYE7: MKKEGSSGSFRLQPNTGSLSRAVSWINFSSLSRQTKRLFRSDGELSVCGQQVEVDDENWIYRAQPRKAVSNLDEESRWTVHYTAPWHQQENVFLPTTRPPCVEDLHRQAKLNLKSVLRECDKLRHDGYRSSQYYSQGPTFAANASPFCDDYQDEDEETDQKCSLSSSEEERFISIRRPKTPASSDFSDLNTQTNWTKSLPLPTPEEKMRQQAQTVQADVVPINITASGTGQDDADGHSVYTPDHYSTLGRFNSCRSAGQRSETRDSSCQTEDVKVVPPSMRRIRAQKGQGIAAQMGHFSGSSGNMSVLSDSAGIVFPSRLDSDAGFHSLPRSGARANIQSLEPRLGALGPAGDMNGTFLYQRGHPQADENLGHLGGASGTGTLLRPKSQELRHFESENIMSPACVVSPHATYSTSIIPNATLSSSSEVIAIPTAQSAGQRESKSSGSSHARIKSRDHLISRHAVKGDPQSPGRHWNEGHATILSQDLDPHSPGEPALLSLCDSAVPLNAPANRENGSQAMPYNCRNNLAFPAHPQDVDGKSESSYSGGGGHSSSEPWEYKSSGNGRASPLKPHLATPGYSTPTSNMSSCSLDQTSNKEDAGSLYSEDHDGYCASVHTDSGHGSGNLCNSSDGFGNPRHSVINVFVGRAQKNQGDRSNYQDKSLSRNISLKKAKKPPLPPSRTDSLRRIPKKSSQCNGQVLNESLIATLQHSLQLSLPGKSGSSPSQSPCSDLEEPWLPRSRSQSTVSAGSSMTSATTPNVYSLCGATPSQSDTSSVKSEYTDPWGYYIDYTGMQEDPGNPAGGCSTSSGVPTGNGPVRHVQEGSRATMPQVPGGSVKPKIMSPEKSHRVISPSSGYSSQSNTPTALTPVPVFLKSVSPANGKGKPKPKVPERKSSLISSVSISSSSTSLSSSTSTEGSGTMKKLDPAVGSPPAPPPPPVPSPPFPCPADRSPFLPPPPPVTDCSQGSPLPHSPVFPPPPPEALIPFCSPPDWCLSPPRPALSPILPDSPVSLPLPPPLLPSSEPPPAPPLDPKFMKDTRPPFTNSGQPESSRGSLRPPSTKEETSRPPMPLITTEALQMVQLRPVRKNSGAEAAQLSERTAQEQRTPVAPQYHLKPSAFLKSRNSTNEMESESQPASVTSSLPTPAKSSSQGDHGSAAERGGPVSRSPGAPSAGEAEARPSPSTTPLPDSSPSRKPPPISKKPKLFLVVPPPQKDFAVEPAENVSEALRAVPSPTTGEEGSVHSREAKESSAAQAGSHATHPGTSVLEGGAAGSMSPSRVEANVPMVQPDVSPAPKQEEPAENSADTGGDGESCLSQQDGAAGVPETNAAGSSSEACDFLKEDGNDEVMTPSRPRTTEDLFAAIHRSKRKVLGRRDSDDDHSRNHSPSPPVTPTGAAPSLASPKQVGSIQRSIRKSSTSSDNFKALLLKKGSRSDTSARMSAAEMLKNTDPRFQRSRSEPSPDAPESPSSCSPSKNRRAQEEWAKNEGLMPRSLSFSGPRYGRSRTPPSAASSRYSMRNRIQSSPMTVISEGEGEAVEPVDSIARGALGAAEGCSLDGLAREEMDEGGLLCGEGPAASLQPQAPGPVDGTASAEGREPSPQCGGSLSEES
UniProt Q9NXR1: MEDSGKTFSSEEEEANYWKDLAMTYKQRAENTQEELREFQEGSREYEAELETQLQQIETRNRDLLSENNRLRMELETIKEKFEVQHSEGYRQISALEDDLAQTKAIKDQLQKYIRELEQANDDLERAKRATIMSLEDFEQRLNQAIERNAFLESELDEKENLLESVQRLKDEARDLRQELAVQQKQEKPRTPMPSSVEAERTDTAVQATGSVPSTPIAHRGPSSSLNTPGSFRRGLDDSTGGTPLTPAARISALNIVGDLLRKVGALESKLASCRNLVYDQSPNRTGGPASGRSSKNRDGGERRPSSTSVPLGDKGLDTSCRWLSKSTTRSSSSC
UniProt Q92636: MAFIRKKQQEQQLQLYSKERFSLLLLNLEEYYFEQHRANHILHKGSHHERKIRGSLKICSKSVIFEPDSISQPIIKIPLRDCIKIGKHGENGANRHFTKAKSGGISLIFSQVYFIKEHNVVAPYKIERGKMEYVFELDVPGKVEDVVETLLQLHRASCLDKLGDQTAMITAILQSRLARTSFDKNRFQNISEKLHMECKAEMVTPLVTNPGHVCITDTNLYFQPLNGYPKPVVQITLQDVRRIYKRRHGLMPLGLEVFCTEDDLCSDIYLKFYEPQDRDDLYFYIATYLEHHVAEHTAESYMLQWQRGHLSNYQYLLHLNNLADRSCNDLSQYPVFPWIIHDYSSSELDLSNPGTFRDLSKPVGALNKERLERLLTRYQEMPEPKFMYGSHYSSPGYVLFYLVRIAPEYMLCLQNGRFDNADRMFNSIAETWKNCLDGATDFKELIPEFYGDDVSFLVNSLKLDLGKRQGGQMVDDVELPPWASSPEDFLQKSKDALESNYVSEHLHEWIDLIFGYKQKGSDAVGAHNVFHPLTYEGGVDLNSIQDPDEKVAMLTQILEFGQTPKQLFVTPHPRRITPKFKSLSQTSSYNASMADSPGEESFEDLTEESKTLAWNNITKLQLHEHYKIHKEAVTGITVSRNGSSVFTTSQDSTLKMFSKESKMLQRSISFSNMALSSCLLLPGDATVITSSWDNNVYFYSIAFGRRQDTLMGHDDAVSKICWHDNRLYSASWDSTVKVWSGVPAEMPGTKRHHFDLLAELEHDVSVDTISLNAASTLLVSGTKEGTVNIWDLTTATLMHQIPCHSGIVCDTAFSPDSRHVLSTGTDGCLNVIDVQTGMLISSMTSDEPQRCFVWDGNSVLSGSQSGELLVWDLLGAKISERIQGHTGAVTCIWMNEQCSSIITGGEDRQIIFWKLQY
UniProt Q9Y5Y2: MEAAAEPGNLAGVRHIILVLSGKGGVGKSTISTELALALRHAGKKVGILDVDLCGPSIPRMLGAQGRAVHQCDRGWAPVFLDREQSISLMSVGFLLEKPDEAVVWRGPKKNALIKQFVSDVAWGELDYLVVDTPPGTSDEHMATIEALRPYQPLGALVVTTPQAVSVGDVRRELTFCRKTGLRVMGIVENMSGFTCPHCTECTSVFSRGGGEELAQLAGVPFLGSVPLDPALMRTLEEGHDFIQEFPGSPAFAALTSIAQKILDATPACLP
UniProt Q15843, whole entry: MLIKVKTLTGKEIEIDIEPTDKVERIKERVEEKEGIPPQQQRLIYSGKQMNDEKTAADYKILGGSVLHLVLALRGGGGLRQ
UniProt P23511, whole entry: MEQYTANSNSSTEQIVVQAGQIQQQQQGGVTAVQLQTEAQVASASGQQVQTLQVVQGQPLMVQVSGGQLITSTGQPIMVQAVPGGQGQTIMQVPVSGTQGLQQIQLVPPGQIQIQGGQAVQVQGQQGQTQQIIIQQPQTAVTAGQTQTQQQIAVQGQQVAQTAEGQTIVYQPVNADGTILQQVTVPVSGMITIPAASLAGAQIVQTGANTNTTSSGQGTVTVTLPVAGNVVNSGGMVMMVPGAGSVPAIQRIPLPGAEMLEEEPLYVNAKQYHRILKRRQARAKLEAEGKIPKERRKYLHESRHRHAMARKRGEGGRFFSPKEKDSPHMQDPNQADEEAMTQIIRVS
UniProt P54802: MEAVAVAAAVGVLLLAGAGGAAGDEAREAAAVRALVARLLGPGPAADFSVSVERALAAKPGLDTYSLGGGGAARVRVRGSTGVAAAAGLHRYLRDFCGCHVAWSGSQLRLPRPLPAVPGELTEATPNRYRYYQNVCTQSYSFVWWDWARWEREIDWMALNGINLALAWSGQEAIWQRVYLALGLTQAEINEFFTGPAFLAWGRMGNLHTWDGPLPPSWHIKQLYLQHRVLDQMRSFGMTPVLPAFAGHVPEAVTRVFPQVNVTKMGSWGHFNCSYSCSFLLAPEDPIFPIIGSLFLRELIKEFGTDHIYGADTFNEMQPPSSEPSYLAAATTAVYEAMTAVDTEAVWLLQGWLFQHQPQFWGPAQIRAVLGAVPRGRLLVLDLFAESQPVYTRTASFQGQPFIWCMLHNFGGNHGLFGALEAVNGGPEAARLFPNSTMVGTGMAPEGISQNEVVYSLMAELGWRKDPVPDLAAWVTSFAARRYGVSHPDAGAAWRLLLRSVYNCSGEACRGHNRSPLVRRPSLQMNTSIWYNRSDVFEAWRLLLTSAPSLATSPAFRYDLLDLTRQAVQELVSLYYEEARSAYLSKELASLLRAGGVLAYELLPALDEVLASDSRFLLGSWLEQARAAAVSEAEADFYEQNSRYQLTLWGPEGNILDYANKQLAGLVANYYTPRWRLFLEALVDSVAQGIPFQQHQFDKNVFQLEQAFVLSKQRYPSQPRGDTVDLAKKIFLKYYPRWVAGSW
UniProt P56556, whole entry: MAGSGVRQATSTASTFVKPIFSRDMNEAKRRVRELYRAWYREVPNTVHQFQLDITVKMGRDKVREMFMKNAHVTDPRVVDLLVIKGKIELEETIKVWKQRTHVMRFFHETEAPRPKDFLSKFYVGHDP
UniProt P55769: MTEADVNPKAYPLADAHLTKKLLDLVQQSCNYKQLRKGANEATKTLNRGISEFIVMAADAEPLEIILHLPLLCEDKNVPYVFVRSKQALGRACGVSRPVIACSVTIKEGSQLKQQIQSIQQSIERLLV
UniProt Q9Y266: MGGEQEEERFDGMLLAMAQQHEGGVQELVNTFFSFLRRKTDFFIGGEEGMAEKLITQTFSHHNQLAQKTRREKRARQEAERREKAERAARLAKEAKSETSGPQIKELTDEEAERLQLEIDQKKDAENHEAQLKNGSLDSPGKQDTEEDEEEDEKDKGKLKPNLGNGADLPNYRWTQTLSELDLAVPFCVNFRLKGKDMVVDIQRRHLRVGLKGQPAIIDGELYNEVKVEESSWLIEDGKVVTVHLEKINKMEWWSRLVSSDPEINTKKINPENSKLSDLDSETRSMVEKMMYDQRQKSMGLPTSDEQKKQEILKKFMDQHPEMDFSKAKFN
UniProt P82970: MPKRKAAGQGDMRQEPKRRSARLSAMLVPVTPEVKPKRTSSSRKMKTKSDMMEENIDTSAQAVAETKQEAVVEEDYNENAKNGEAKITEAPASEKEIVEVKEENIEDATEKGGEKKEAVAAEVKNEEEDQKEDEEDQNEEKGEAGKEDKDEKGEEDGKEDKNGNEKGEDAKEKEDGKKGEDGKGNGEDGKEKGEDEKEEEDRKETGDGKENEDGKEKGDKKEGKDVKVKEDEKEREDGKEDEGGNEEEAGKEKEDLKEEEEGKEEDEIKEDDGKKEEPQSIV

Compound: COc1ccc(Cn2ccc3cc(C)c(C(=O)NO)cc32)cc1
Experiment: dose-dependent thermal stabilisation call (2D-TPP, DLPTP, 10% FDR) (binary (1 = stabilised)); higher = stabilised by the compound
Settings: system: HL-60 intact cells; concentration range 0.04-10 µM
Procedure: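 2D thermal proteome profiling in intact HL-60 cells treated with BRD-3811 (0, 0.04, 0.29, 2, 10 uM) for 90 min at 37 C, then heated 3 min at one of 12 temperatures (42-63.9 C). Soluble protein was quantified by TMT10 MS. The value is the DLPTP call of the paper: dose-dependent thermal stabilisation over all temperatures at 10% FDR (F-test of a dose-response against a flat model); one experiment, one call per tested protein.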

Target | dose-dependent thermal stabilisation call
NLRX1 (UniProt Q86UT6) | inactive: 0
NUPL2 (UniProt O15504) | inactive: 0
NEDD1 (UniProt Q8NHV4) | inactive: 0
NDUFB1 (UniProt O75438) | inactive: 0
NSUN6 (UniProt Q8TEA1) | inactive: 0
NKIRAS2 (UniProt Q9NYR9) | inactive: 0
NCKAP1L (UniProt P55160) | inactive: 0
NHSL1 (UniProt Q5SYE7) | inactive: 0
NME3 (UniProt Q13232) | inactive: 0
NDE1 (UniProt Q9NXR1) | inactive: 0
NSMAF (UniProt Q92636) | inactive: 0
NDUFS3 (UniProt O75489) | inactive: 0
NUBP2 (UniProt Q9Y5Y2) | inactive: 0
NEDD8 (UniProt Q15843) | inactive: 0
NFU1 (UniProt Q9UMS0) | inactive: 0
NBEAL2 (UniProt Q6ZNJ1) | inactive: 0
OCIAD1 (UniProt Q9NX40) | inactive: 0
NDUFS2 (UniProt O75306) | inactive: 0

Target | dose-dependent thermal stabilisation call
NT5C (UniProt Q8TCD5) | inactive: 0
NUP85 (UniProt Q9BW27) | inactive: 0
OFD1 (UniProt O75665) | inactive: 0
NFYA (UniProt P23511) | inactive: 0
NUP188 (UniProt Q5SRE5) | inactive: 0
NPTN (UniProt Q9Y639) | inactive: 0
NUP43 (UniProt Q8NFH3) | inactive: 0
NAGLU (UniProt P54802) | inactive: 0
NDUFA6 (UniProt P56556) | inactive: 0
NHP2L1 (UniProt P55769) | inactive: 0
NUP210 (UniProt Q8TEM1) | inactive: 0
NCAPH2 (UniProt Q6IBW4) | inactive: 0
NUP35 (UniProt Q8NFH5) | inactive: 0
NUDC (UniProt Q9Y266) | inactive: 0
NCAPH (UniProt Q15003) | inactive: 0
NUP88 (UniProt Q99567) | inactive: 0
NSBP1 (UniProt P82970) | inactive: 0
NSMCE1 (UniProt Q8WV22) | inactive: 0

Taken from above.
Entry of NFYA (UniProt P23511) under dose-dependent thermal stabilisation call: inactive: 0
Entry of NUP85 (UniProt Q9BW27) under dose-dependent thermal stabilisation call: inactive: 0
